This is one part of the list.
Compound: Cc1cc(ccc1-c1ccccc1)C(=O)N1CCCN(CC1)C(=O)CCl [compound 10]
Test: probe-labelled cysteine peptide fold change vs DMSO (competition) (log2 fold change); higher = less target engagement (more negative = stronger competition)
Conditions: THP-1, incubation time: 4 h
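Also: competitive profiling in live THP-1 cells: cysteine peptides tagged with an iodoacetamide desthiobiotin (IA-DTB) probe, intensity after compound treatment relative to DMSO-treated cells.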

The chains behind the UniProt entries cited, without tags or fusion partners. Where a name states a change or a piece, a line headed by the entry shows the natural chain unless it says otherwise.
UniProt Q9NU22: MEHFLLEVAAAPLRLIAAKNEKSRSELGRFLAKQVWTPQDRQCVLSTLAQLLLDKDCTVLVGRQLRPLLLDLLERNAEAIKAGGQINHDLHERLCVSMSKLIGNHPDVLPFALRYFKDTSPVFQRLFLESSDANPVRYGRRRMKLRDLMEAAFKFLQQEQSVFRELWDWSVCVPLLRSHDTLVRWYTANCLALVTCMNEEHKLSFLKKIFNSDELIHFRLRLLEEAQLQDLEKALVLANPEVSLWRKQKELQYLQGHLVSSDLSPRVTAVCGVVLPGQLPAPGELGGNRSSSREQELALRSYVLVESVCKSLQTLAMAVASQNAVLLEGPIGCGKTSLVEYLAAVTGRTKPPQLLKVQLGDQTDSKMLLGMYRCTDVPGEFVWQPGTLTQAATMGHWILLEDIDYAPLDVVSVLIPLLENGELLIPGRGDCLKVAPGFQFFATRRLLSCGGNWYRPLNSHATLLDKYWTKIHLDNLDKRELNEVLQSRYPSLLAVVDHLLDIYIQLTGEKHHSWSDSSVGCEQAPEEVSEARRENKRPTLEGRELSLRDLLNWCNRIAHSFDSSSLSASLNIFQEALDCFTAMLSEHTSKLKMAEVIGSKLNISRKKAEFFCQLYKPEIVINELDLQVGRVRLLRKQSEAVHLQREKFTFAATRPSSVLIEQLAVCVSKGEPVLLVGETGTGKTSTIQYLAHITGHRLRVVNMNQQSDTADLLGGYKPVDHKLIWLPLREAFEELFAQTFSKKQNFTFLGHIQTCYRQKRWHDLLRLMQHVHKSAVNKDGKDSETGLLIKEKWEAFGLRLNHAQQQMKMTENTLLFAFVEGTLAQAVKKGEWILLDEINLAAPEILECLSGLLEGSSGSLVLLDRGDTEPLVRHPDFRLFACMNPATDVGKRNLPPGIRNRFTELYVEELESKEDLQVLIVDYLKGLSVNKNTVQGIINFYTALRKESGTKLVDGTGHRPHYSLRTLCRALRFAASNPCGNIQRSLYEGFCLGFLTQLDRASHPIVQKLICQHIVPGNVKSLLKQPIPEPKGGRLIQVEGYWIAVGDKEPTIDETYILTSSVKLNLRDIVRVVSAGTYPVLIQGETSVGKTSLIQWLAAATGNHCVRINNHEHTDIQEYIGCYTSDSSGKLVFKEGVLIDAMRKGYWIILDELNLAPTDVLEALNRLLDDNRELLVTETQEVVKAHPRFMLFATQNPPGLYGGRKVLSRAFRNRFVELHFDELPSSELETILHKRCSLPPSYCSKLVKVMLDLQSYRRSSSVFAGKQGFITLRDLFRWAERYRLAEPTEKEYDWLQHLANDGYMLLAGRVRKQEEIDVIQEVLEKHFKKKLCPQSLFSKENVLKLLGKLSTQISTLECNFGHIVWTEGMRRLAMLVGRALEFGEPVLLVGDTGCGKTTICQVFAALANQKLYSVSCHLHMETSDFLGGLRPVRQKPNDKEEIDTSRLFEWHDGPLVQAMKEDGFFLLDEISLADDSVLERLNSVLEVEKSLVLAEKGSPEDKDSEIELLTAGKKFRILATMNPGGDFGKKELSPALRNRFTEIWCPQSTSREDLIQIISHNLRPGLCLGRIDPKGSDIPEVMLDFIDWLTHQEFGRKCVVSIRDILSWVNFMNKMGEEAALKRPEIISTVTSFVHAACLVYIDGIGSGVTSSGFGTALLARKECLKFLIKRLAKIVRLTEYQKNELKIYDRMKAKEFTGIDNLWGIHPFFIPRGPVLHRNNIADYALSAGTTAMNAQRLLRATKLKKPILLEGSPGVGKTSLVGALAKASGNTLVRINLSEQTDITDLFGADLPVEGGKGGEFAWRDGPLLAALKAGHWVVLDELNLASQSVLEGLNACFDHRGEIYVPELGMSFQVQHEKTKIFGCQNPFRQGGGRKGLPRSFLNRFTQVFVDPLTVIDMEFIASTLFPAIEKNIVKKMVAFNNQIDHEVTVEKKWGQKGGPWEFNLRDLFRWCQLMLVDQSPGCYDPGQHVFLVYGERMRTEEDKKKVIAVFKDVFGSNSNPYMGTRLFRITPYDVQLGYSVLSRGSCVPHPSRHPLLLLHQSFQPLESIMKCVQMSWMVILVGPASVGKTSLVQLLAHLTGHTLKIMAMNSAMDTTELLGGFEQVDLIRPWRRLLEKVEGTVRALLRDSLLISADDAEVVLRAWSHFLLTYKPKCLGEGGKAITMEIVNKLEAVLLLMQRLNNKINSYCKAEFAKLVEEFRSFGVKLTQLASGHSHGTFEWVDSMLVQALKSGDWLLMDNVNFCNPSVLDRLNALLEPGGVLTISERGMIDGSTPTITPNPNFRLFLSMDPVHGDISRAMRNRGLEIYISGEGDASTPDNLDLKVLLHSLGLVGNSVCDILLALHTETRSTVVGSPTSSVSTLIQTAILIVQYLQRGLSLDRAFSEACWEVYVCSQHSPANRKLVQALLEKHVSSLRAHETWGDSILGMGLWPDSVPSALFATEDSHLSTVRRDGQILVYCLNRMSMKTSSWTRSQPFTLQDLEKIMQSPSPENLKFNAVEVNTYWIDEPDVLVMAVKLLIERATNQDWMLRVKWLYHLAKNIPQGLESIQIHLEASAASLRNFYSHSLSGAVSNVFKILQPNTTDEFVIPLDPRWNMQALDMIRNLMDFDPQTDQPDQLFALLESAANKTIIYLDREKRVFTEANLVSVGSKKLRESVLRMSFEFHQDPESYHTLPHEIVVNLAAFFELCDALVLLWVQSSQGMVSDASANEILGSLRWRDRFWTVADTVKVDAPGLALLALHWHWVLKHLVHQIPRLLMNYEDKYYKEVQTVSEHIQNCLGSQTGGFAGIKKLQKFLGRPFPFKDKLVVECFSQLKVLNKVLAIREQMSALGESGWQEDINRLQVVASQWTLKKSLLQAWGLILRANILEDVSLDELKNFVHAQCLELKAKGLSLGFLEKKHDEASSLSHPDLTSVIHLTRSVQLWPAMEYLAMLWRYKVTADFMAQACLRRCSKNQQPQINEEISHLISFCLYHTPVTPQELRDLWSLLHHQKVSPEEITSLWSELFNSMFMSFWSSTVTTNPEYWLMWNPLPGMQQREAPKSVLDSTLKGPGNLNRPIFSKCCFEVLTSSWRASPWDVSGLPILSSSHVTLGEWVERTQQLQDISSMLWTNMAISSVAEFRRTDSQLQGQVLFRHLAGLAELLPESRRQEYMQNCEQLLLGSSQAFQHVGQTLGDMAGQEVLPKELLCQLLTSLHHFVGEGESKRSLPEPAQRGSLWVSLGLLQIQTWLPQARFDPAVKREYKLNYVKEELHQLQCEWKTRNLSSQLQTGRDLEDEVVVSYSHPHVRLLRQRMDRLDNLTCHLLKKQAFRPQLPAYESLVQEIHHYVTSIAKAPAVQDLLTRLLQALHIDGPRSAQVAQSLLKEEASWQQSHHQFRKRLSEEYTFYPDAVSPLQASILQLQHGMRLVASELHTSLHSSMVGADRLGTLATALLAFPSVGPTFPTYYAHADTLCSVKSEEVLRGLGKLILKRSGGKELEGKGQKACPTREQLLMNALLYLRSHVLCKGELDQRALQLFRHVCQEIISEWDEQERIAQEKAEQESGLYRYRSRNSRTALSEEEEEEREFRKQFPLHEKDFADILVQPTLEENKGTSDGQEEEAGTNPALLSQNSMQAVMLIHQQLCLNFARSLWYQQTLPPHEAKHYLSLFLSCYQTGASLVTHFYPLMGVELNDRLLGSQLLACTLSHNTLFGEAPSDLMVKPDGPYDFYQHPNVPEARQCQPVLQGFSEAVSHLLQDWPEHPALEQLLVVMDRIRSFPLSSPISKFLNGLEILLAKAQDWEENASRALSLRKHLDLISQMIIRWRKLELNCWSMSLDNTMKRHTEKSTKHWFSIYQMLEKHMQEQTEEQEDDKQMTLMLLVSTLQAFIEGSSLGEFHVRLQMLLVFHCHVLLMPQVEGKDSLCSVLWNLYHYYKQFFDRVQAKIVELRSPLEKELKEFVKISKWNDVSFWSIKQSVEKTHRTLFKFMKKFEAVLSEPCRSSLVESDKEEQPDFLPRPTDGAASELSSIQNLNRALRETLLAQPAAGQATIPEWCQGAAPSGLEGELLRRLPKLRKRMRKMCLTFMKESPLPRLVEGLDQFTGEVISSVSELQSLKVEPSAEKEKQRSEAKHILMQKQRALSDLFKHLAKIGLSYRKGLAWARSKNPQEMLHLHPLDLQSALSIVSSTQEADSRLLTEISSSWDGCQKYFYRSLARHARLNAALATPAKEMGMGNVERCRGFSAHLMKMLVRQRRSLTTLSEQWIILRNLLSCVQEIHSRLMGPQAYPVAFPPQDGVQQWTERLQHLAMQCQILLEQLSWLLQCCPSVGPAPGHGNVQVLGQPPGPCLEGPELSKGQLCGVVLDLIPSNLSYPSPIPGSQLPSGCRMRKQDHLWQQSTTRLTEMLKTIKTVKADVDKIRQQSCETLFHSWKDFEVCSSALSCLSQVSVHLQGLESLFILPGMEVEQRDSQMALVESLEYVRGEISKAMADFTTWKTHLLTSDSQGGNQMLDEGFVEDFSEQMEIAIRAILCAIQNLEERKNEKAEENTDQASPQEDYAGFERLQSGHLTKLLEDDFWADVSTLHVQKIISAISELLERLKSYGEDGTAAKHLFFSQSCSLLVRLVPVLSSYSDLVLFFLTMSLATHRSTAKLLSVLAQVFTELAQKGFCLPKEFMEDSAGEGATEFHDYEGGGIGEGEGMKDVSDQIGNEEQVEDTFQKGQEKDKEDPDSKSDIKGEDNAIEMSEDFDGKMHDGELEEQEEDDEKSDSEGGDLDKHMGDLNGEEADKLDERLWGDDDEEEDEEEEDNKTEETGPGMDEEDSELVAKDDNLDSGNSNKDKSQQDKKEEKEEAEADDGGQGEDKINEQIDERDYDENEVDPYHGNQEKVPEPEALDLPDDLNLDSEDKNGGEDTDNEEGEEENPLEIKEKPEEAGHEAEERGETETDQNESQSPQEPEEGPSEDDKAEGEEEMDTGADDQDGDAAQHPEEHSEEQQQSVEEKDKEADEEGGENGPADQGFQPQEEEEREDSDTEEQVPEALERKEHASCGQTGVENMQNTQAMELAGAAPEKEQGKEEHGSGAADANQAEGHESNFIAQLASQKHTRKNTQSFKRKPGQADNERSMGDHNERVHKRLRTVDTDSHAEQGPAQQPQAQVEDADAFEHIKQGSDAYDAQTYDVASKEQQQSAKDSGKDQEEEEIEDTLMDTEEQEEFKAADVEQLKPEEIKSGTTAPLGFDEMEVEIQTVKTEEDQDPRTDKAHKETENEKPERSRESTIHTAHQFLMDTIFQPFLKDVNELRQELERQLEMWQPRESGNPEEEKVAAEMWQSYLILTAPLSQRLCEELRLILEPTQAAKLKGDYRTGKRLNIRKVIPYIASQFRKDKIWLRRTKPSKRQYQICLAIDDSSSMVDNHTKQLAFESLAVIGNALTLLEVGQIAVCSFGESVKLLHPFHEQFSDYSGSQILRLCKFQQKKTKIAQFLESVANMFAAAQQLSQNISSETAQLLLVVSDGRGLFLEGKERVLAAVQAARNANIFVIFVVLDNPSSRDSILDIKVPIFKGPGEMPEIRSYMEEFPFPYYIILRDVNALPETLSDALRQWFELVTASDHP
UniProt Q14566: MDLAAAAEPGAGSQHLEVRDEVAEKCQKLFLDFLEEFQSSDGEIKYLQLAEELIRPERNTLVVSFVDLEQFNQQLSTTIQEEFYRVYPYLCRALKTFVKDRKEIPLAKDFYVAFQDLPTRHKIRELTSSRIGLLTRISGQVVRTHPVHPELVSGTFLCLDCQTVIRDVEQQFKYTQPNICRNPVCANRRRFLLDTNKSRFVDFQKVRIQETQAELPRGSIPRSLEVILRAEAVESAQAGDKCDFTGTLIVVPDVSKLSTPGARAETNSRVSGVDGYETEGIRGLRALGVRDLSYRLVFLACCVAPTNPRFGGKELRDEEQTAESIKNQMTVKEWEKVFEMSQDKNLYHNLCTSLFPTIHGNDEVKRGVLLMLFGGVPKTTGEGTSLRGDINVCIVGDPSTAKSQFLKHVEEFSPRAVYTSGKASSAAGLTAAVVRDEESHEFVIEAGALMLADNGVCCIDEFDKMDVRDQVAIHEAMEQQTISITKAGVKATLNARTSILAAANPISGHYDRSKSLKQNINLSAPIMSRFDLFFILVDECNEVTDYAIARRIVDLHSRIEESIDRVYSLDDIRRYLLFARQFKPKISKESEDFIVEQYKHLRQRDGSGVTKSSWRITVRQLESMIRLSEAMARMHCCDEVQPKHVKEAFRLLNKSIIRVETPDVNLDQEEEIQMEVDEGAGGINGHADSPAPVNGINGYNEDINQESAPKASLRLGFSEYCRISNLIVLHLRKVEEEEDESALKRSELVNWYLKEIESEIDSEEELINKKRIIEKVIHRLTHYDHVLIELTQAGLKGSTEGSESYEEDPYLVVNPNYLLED

| Target | probe-labelled cysteine peptide fold change (10 µM) | probe-labelled cysteine peptide fold change (50 µM) |
| --- | --- | --- |
| MGMT_P16455_145_GNPVPILIPCHR (UniProt P16455) | -1.04 | -1.29 |
| MDN1_Q9NU22_3985_KFEAVLSEPCR (UniProt Q9NU22) | -0.313 | -0.0822 |
| METAP1_P53582_14_VCETDGCSSEAK (UniProt P53582) | -0.107 | -0.596 |
| MCM6_Q14566_161_THPVHPELVSGTFLCLDCQTVIR (UniProt Q14566) | 0.209 | 0.0343 |
| MCM5_P33992_207_CPLDPYFIMPDK (UniProt P33992) | -0.0843 | -0.451 |
| MCM6_Q14566_242_AEAVESAQAGDKCDFTGTLIVVPDVSK (UniProt Q14566) | -0.0918 | -0.486 |
| MDN1_Q9NU22_521_HHSWSDSSVGCEQAPEEVSEAR (UniProt Q9NU22) | 0.141 | 0.0409 |
| MCM3AP_O60318_740_DITQQHLCDPLTVSLIEK (UniProt O60318) | -0.125 | -0.00913 |
